Laboratory results as given in patent US10155728B2, “Compounds for treatment of cancer” (GTX INC., priority 2014, dated 2018).
For some assays here: At least one structure is not confirmed: it was looked up by name or label, or the drawing left a doubt. Some entries share one result that the patent states for a list of compounds.

Columns and labels:
[1] = Microsomal stability assay, human; assay type: in vitro ADME; conditions: human liver microsomes
Protocol: Microsomal Stability Assay. […] For metabolite identification, the reaction mixture was incubated for 2 h with 50 μM test compound concentration under the previously described conditions. The supernatants were analyzed using a Water Xevo G2-S high resolution mass spectrometer.

[2] = test system: metastatic melanoma; conditions: cited from earlier work

SMILES	Improvement of metabolic stability compared to 10 [1]	Complete remission in patients [2]
COc1cc(-c2cccc3[nH]c(-c4c[nH]c5ccccc45)nc23)cc(OC)c1OC [Compound 4, 2-(1H-Indol-3-yl)-4-(3,4,5-trimethoxyphenyl)-1H-benzo[d]imidazole]	2-3 fold	–
CN(C)/N=N/c1[nH]cnc1C(N)=O [dacarbazine]	–	less than 5%
